Values of other authors, collected in patent US20220265571A1, “COMPOSITION OF CANNABIDIOL FOR USE IN THE TREATMENT AND PREVENTION OF BRO[…]” (MOR RESEARCH APPLICATIONS LTD., priority 2019, published 2022).

Compound: C=C(C)[C@@H]1CCC(C)=C[C@H]1c1c(O)cc(CCCCC)cc1O [Cannabidiol, 2-[(6R)-3-Methyl-6-prop-1-en-2-yl-1cyclohex-2-envyl]-5pentylbenzene-1,3-diol]
- solubility in organic solvents (organic solvents, such as oil): soluble
- solubility in water (water): insoluble
